Test results as given in ChEMBL document CHEMBL3425412, “Additional sesterterpenes and a nortriterpene saponin from the sponge Clathria gombawuiensis” (2015).
Values after ≈ are worked out from the molar mass of the structure shown.

Tested on: Escherichia coli
Test: Antimicrobial activity against Escherichia coli ATCC 35270 after 24 hrs by twofold dilution method
Assay type: functional
Conditions: ATCC 35270, 24 h

## CC1(C)S[C@@H]2[C@H](NC(=O)[C@H](N)c3ccccc3)C(=O)N2[C@H]1C(=O)O [AMPICILLIN]
  MIC: 3.1 µg/mL (≈ 8.87 µM)
